We go through 6 molecules from article doi:10.1101/2025.08.25.672096 (bioRxiv, 2025).

Amino acid sequences for entries named in this document (tags omitted).
UniProt Q15058: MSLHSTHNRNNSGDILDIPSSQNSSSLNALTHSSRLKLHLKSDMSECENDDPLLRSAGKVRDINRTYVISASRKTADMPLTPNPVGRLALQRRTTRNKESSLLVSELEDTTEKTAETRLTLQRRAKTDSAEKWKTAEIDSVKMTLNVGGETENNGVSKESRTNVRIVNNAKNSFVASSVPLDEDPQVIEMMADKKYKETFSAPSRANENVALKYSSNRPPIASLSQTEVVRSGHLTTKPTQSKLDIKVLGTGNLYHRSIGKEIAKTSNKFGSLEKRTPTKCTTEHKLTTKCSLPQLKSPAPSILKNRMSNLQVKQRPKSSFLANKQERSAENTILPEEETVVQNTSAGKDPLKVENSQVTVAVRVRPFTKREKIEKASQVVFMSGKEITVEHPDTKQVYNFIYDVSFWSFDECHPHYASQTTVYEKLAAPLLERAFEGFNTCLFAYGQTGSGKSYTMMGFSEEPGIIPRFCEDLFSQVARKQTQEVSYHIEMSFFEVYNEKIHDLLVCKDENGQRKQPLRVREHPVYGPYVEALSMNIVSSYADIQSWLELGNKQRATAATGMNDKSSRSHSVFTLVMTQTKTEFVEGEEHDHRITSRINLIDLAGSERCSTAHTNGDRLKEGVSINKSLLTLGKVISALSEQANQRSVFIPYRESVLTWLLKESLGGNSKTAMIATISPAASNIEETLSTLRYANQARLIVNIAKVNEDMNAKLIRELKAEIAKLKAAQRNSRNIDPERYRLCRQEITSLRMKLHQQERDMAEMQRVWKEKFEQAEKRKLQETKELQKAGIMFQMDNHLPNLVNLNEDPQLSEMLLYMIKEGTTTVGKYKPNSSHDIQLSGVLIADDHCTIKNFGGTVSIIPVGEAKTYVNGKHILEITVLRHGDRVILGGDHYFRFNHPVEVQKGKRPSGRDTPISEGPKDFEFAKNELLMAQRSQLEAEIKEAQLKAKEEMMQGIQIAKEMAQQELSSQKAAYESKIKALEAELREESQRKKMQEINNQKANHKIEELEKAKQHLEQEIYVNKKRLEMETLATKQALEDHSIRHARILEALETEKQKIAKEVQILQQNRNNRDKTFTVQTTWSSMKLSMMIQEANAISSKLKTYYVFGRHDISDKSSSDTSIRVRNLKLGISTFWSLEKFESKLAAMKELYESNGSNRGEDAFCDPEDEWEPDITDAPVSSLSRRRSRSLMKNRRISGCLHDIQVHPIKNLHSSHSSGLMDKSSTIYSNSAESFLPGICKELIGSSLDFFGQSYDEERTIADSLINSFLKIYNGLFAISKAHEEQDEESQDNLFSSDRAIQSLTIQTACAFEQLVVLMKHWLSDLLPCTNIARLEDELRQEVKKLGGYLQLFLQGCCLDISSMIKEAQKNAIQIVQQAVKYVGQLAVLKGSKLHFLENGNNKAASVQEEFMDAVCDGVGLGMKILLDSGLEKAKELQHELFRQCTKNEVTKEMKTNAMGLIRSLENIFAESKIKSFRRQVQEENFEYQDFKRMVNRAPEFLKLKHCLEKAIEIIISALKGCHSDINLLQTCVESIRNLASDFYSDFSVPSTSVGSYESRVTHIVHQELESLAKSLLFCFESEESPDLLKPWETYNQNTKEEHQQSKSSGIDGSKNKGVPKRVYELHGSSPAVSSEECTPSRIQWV
UniProt Q96GD4: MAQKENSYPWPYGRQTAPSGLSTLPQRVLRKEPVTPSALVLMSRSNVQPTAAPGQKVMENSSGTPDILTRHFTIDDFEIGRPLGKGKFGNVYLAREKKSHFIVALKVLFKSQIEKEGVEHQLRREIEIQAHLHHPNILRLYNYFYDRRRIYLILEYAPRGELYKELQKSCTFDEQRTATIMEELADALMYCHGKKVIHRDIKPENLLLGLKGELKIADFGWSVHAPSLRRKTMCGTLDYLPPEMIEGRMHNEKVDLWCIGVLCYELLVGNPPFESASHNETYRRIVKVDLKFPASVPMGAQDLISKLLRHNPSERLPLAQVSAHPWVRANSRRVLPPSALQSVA

Test [1] concerns the target GFP-tagged Citron kinase (CIT-K) S440A, phospho-dead mutant (human) (UniProt O14578). Description: co-IP.
Test [2] deals with GFP-tagged Citron kinase (CIT-K) S699A, phospho-dead mutant (human) (UniProt O14578). Description: co-IP.
Test [3] deals with GFP-tagged Citron kinase (CIT-K), wild type transgene (human) (UniProt O14578). As to the kind of experiment: co-IP.
Another test deals with T1, GST::MKLP1(620-856) (UniProt Q02241).
T1 sequence: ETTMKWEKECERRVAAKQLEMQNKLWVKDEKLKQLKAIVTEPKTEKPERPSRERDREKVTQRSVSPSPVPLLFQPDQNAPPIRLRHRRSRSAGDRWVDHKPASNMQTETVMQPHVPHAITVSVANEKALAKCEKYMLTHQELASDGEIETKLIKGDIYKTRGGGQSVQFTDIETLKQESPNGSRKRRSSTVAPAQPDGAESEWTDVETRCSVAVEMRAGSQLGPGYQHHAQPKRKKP
As to the kind of experiment: pull-down.

These are yes or no findings as the source states them, for the method shown. For part of these data: Binding seen in cells or lysates may run through a third protein. Some entries that bind do so weakly or less than the wild type. For part of these data: Tags and fused reporters may be left off the sequences shown.

Consider KIF14 (from UniProt Q15058 1-1648), for which the binding result in test [1], in test [2] and in test [3] was “binds” in each case.
With “MBP::CIT-K(586-785) phosphorylated in vitro by Aurora B (pS699) (from UniProt O14578-4 586-785) (domain or fragment)”, in the test with GST::MKLP1(620-856), the binding result is on record as “binds”.
Regarding “MBP::CIT-K(586-785) (from UniProt O14578-4 586-785) (domain or fragment)”, the binding entry with GST::MKLP1(620-856) is listed as “binds”.
On to “Aurora B kinase (AURKB) (from UniProt Q96GD4 1-344)”, for which the binding entry in test [1], in test [2] and in test [3] was “binds” in each case.

B1: MKLP1/KIF23 (protein, UniProt Q02241 1-960)
chain: MKSARAKTPRKPTVKKGSQTNLKDPVGVYCRVRPLGFPDQECCIEVINNTTVQLHTPEGYRLNRNGDYKETQYSFKQVFGTHTTQKELFDVVANPLVNDLIHGKNGLLFTYGVTGSGKTHTMTGSPGEGGLLPRCLDMIFNSIGSFQAKRYVFKSNDRNSMDIQCEVDALLERQKREAMPNPKTSSSKRQVDPEFADMITVQEFCKAEEVDEDSVYGVFVSYIEIYNNYIYDLLEEVPFDPIKPKPPQSKLLREDKNHNMYVAGCTEVEVKSTEEAFEVFWRGQKKRRIANTHLNRESSRSHSVFNIKLVQAPLDADGDNVLQEKEQITISQLSLVDLAGSERTNRTRAEGNRLREAGNINQSLMTLRTCMDVLRENQMYGTNKMVPYRDSKLTHLFKNYFDGEGKVRMIVCVNPKAEDYEENLQVMRFAEVTQEVEVARPVDKAICGLTPGRRYRNQPRGPVGNEPLVTDVVLQSFPPLPSCEILDINDEQTLPRLIEALEKRHNLRQMMIDEFNKQSNAFKALLQEFDNAVLSKENHMQGKLNEKEKMISGQKLEIERLEKKNKTLEYKIEILEKTTTIYEEDKRNLQQELETQNQKLQRQFSDKRRLEARLQGMVTETTMKWEKECERRVAAKQLEMQNKLWVKDEKLKQLKAIVTEPKTEKPERPSRERDREKVTQRSVSPSPVPLSSNYIAQISNGQQLMSQPQLHRRSNSCSSISVASCISEWEQKIPTYNTPLKVTSIARRRQQEPGQSKTCIVSDRRRGMYWTEGREVVPTFRNEIEIEEDHCGRLLFQPDQNAPPIRLRHRRSRSAGDRWVDHKPASNMQTETVMQPHVPHAITVSVANEKALAKCEKYMLTHQELASDGEIETKLIKGDIYKTRGGGQSVQFTDIETLKQESPNGSRKRRSSTVAPAQPDGAESEWTDVETRCSVAVEMRAGSQLGPGYQHHAQPKRKKP
B1: the binding result in test [1], in test [2] and in test [3] was “binds” throughout.

B2: MBP::CIT-K(420-585) (domain or fragment, human, UniProt O14578-4 420-585, looked up)
chain: SYSKALGILGRSESVVSGLDSPAKTSSMEKKLLIKSKELQDSQDKCHKMEQEMTRLHRRVSEVEAVLSQKEVELKASETQRSLLEQDLATYITECSSLKRSLEQARMEVSQEDDKALQLLHDIREQSRKLQEIKEQEYQAQVEEMRLMMNQLEEDLVSARRRSDLY
Regarding B2, the binding entry in the test with GST::MKLP1(620-856) is on record as “no binding”.
